Reference: publication doi:10.1101/2020.02.26.966374
Like-named read-outs stand apart in the source and are kept apart here. Results are given in words; binding and its absence hold for the method and conditions named. In cells and extracts the contact can be indirect. Some entries that bind do so weakly or less than the wild type. Tags and fused reporters may be left off the sequences shown.

T1: DGAT1-mCherry (mouse) (UniProt Q9Z2A7)
T1 sequence: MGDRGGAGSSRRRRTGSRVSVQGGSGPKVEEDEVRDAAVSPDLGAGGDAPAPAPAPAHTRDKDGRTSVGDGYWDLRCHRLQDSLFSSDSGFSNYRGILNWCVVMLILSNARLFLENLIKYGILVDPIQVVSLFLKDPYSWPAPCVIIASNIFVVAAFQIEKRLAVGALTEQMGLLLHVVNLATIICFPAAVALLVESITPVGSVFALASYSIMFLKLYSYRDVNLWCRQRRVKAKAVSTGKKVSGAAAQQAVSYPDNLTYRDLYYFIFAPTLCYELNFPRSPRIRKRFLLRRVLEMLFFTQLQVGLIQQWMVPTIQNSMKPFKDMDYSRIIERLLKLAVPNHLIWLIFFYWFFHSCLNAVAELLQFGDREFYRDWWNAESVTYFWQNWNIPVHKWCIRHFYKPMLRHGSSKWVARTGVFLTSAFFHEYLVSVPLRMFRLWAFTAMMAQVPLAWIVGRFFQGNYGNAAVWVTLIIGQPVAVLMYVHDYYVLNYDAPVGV

T2: PLIN3-mCherry (mouse) (UniProt Q9DBG5)
T2 sequence: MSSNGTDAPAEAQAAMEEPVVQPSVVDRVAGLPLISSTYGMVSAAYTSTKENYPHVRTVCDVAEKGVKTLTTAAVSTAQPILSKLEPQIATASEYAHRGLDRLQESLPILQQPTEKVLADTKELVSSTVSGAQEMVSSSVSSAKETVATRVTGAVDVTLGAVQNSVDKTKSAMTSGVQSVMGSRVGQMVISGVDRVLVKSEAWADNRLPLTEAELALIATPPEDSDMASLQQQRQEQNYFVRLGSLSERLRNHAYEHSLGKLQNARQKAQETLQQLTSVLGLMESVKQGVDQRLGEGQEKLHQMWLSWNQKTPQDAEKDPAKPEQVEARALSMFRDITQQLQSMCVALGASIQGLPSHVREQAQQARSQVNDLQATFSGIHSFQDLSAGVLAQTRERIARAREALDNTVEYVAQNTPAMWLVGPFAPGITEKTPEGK

T3: PLIN2-mCherry (mouse) (UniProt P43883)
T3 sequence: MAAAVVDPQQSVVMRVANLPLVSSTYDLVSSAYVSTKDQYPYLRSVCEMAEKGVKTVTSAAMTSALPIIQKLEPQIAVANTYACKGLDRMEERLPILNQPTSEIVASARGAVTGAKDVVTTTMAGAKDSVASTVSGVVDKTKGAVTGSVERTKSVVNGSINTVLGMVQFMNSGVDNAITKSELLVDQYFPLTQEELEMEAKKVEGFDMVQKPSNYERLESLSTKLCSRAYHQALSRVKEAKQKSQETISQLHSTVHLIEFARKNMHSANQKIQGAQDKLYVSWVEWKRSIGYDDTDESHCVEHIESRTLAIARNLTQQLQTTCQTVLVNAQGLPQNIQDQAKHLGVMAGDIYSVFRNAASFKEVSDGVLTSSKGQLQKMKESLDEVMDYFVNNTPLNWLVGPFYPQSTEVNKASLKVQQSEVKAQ

T4: DGAT2-mCherry (mouse) (UniProt Q9DCV3)
T4 sequence: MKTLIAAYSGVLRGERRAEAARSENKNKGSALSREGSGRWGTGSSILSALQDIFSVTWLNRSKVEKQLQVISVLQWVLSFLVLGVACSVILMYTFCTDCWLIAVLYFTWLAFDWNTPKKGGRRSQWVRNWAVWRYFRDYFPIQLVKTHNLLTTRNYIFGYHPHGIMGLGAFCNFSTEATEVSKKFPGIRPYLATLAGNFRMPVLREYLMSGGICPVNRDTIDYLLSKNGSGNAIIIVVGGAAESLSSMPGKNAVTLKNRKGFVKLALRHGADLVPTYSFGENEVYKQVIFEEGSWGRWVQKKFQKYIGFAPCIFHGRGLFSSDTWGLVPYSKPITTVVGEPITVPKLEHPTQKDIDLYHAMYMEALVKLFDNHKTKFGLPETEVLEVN

T5: GPAT1-EGFP (mouse) (UniProt Q61586)
T5 sequence: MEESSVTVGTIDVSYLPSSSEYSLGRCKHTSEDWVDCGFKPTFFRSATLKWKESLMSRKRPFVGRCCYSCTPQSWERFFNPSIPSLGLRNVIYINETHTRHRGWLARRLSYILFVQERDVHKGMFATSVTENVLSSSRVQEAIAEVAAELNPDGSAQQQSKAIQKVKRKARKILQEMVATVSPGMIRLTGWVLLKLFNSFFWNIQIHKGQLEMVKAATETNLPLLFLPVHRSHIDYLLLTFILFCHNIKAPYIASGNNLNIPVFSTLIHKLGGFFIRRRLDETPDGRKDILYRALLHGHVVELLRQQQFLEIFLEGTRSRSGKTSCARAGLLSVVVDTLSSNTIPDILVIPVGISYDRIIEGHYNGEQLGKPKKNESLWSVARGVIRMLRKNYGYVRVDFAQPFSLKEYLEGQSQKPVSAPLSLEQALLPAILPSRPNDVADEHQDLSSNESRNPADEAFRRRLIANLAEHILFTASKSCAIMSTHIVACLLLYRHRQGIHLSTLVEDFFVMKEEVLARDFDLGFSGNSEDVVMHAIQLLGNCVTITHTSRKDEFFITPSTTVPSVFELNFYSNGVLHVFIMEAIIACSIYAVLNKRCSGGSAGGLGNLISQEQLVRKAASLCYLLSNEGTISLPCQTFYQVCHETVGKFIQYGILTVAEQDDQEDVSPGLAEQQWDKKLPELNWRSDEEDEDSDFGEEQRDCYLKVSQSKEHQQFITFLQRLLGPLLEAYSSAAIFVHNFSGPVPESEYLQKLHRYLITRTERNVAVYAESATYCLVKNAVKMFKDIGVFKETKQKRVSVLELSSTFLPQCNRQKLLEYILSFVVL

T6: GPAT4-EGFP (mouse) (UniProt Q8K2C8)
T6 sequence: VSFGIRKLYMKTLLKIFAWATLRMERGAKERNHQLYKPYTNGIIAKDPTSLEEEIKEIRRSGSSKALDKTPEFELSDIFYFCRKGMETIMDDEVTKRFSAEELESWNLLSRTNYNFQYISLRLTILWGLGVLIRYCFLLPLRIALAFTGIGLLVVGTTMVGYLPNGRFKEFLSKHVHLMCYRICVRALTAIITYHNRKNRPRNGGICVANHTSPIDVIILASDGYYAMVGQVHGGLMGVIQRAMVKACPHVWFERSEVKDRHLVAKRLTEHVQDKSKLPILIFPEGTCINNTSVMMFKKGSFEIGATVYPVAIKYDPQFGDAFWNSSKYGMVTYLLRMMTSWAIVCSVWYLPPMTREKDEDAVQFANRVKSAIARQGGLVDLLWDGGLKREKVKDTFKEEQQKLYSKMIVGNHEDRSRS

B1: HILPDA-mEGFP (protein, UniProt Q9JLS0 1-64)
chain: MKFMLNLYVLGIMLTLLSIFVRVMESLGGLLESPLPGSSWITRGQLANTQPPKGLPDHPSRGVQ
B2: HILPDA-mCherry (protein, UniProt Q9JLS0 1-64)
chain: B1 chain

Legend:
Assay in all cases: FRET or BRET
DGAT1-mCherry (mouse) [1] = target: T1, DGAT1-mCherry (mouse)
PLIN3-mCherry (mouse) = target: T2, PLIN3-mCherry (mouse)
PLIN2-mCherry (mouse) = target: T3, PLIN2-mCherry (mouse)
DGAT2-mCherry (mouse) [2] = target: T4, DGAT2-mCherry (mouse)
DGAT1-mCherry (mouse) [3] = target: T1, DGAT1-mCherry (mouse); remark: listed apart in the source
DGAT2-mCherry (mouse) [4] = target: T4, DGAT2-mCherry (mouse); remark: listed apart in the source
GPAT1-EGFP (mouse) = target: T5, GPAT1-EGFP (mouse)
GPAT4-EGFP (mouse) = target: T6, GPAT4-EGFP (mouse)

Row | Binder | binding (DGAT1-mCherry (mouse) [1]) | binding (PLIN3-mCherry (mouse)) | binding (PLIN2-mCherry (mouse)) | binding (DGAT2-mCherry (mouse) [2]) | binding (DGAT1-mCherry (mouse) [3]) | binding (DGAT2-mCherry (mouse) [4]) | binding (GPAT1-EGFP (mouse)) | binding (GPAT4-EGFP (mouse))
1 | B1 | binds | no binding | no binding | binds | binds | binds | – | –
2 | B2 | – | – | – | – | – | – | no binding | no binding
